What follows are molecules tested on KG1a cells (assay: MTT cell viability assay, KG1a cells). Details: chemoresistant KG1a versus chemosensible KG1.
Type: cell-based
Experimental: Briefly, effect of drugs alone and in combinations were determined for a 3-5 log scale of concentrations of drugs and with a constant ratio between the two drugs used for co-treatment. Cells were seeded in 96-well plates (50 000 cell/well). Cells were treated just after seeding, for 48 hours. Cell viability was determined with MTT assay. Cells were centrifuged 5 minutes at 1200 rpm, medium removed, 100 μl of MTT solution (1 mg/ml in PBS) added, incubated for 2 hours at 37° C., centrifuged, MTT solution removed and DMSO (100 μl) added to dissolve purple formazan formed by living cells. Absorbance of the solution was determined at 540 nm.
HL60, KG1, KG1a and MV4-11 cells were seeded in 96-well plates (50 000 cells/well). Cells were treated just after seeding with increasing doses of daunorubicin, for 48 hours. Cell viability was determined with MTT assay as follows: cells were centrifuged 5 minutes at 1200 rpm, medium removed, 100 μl of MTT solution (1 mg/ml in PBS) added, incubated for 2 hours at 37° C., centrifuged, MTT solution removed and DMSO (100 μl) added to dissolve purple formazan formed by living cells. Absorbance of the solution was determined at 540 nm.
HL60, KG1, KG1a and MV4-11 cells were seeded in 96-well plates (50 000 cells/well). Cells were treated just after seeding with increasing doses of cytarabine, for 48 hours.
HL60, KG1, KG1a and MV4-11 cells were seeded in 96-well plates (50 000 cells/well).
HL60, KG1, KG1a and MV4-11 cells were seeded in 96-well plates (50 000 cells/well). Cells were treated just after seeding with increasing doses of cisplatin, for 48 hours.
HL60, KG1, KG1a and MV4-11 cells were seeded in 96-well plates (50 000 cells/well). Cells were treated just after seeding with increasing doses of Dendrogenin A, for 48 hours.
(§1) KG1a cells were seeded in 96-well plates (50 000 cells/well).
as §1
KG1a cells were seeded in 96-well plates (50 000 cells/well). […]

Structure (SMILES) | KG1a/KG1 IC50 ratio
N.N.[Cl][Pt][Cl] [Cisplatin] | 2.9
Nc1ccn([C@@H]2O[C@H](CO)[C@@H](O)[C@@H]2O)c(=O)n1 [Cytarabine] | 4.5
COc1cccc2c1C(=O)c1c(O)c3c(c(O)c1C2=O)C[C@@](O)(C(C)=O)C[C@@H]3O[C@H]1C[C@H](N)[C@H](O)[C@H](C)O1 [Daunorubicin] | 17
CC(C)CCC[C@@H](C)[C@H]1CC[C@H]2[C@@H]3C[C@@H](NCCc4cnc[nH]4)[C@@]4(O)C[C@@H](O)CC[C@]4(C)[C@H]3CC[C@]12C [Dendrogenin A, 5α-hydroxy-6β-[2-(1H-imidazol-4-yl)ethylamino]cholestan-3β-ol] | 1.5

Source: US10188666B2, “Dendrogenin A and antineoplastic agents for the treatment of chemosensitive or chemoresistant tumors” (priority 2013, dated 2019)
